About 3,700 (7%) of roughly 53,000 sequences were called active.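 Rule for the calls: active = gene knockdowns whose robust z-score for IL-1 alpha signal is at least 2 or at most -2, so actives lie on both sides; inactive = the rest.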 This is one part of the list.

This experiment is described as follows: Components of the Cytosolic LPS Sensing Pathway: Gene Identification via Genome-wide siRNA Screen.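 Note: robust z of the log signal after scaling to non-targeting control siRNA wells of the plate.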 As to conditions: RAW264.7 macrophages, IL-1a HTRF, actives lie on both sides, screened at 100 nM (by protocol), cells primed 5 h with Pam3CSK4 first. A digest of the protocol: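 RAW264.7 mouse macrophages reverse-transfected with single siRNAs (100 nM final) for 48h, primed with Pam3CSK4 for 5 hours, then transfected with LipidA for 24 hour. Supernatant IL-1a read by HTRF; values normalized to negative-control median, log-transformed robust z-scores.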
(In general: Time-resolved FRET reads energy transfer from a long-lived donor to a nearby acceptor.)
Consider GGAGUUGGUUCUGUGUUAUTT against Tcf7l2, for which the z-score is inactive: -0.271. The result for GCUGUAACUACAUUUGAGGTT against Rnf220 reads inactive: -1.62; that for GGCGUGAUCGCUCUCCAAUTT against Ncoa5, inactive: 0.834; that for GGCACUCAGUAACUGCAUGTT against Jakmip1, inactive: 1.14.

With CGACUUCAAAUCUGGGCCATT against Psmd14, the z-score was inactive: -1.03. Next, GCCGUUGCCUUUCAAGGGATT against Inhbe: inactive: -0.112; CCCACUAAGGAGAUCAGUUTT against Lasp1: inactive: 1.32. The result for GGAAGUUCUGCACACAGCATT against Pth1r reads inactive: -0.921. The result for CCUAUACAAGGGAGGUGAATT against Il1f10 reads inactive: -0.283; that for GCAUUGACAUCGAUCAGAUTT against Irx1, inactive: -0.642; that for CCAGUACGGCCCUAUGAAUTT against Zic2, inactive: -1.84. Regarding GGUGGAAUGUCACUACACUTT against Calcoco1, the z-score is inactive: 0.916. Next, GGUAACACAGAAGAAAUCUTT against Higd1a: inactive: -0.0444. Next, CCUUCAGAUAUCUUAGAAATT against Selenoi: inactive: -0.334; GGCAGCUGUUAUGCUUUUCTT against Cd302: inactive: 0.822; CCUUAUUUUGACCGUCCAATT against Ylpm1: inactive: 0.123. Next, CCAACGAAUUCUUGUUACUTT against Kcnc3: inactive: 0.376; GGCUGCUGCUCAGUCUUUATT against Pou2f1: inactive: 0.249; GGAAUAUGCACUUAAGCAATT against Cdk19: inactive: 0.481.

As for GGAGCUGAUCUUUUCAGUGTT against Slc35b3, the z-score is inactive: 1.01.

For the sequence GGUGUGCUCUGUAAAUCAUTT against Trappc2, the z-score was inactive: 0.656. Next, GGGCAACAUUUUGGAUUAUTT against Naglu: inactive: -0.083; CCGUAAUUACCUAAAACUCTT against Tbc1d9: inactive: -0.649. The result for GGCUUUUGAGAAUUCAUUCTT against Kcna5 reads active: 2.75; that for GGAGCUUUUUAUGUUUUAGTT against Fam177a, inactive: 1.93. The result for GGCUAUGAGAUUUAGAGCATT against Ms4a13 reads inactive: 0.509; that for CCUUUCUAACUACUCUCACTT against Olfr149, inactive: 1.13; that for GGCUUUGCUUUUUCUGUAUTT against Ppif, inactive: -0.218. On to GGAAAAAACCACGAUUGAGTT against Pecam1, for which the z-score was inactive: -0.434. Next, GGAAACAAAAGGAUUUCUGTT against Fbxl13: inactive: 1.24; GCUCAGAUGUAUAGACUCATT against Ap2a2: inactive: 0.0961; GCUGAGAGAAAGGUUCACATT against Tube1: inactive: 0.0484. With CCUCAUUGAGGUAAUGCGGTT against Samm50, the z-score is inactive: -0.548. Next, GGCUCAGAAACUAUUGAUATT against Rpgr: inactive: 0.584; GGCUUAUACGCUCCAUAUUTT against Gykl1: inactive: -0.214; GCAACCCUUCUGAACAGGATT against Scyl2: inactive: 0.468. The result for GCCUUUACACUAAUGAUAATT against Cilp reads inactive: 0.455.

Take GGUGGAAUAAUGGACAAGATT against Blnk: the z-score is inactive: 0.0728. GCGAGCUAUUCUUCCUUGUTT against Eif4a1: the z-score was active: -2.13. Turning to GGAUAAGAAGCGAUUUGAATT against Rcn2, the z-score is inactive: -0.294.

As to GGAACUCUCCUUGCAUCAGTT against Lrrc6, the z-score was inactive: 1.27. Consider GCCAAGAGCGAAAUGAGUGTT against Mcf2l, for which the z-score is inactive: -0.999. Next, CCGACGAUGGCACAUUACATT against Ranbp3: inactive: 0.307. Next, GCUCUCUCCAUAUUAGUGGTT against Nkg7: inactive: 0.12. Next, CCGUUAUAUCUGCCAGUUUTT against Clec18a: inactive: 0.12; GCUGAAGGCGACAAUGGAUTT against Ak2: inactive: -0.0901; GCAAUAGGUUUAAAGACAUTT against Tgm5: inactive: -0.969. As to GGACCAUUCAUUUCUGGAGTT against Riok3, the z-score was inactive: 0.541. The result for GGAGAUAGAAUUGAAAUUCTT against Prl8a2 reads inactive: -1.26. Next, GCCCAUCAACCUAAUUUCATT against Tarbp2: inactive: -0.831; GCAACUGAGGCUUUCUUUGTT against Copg1: inactive: -1.53. The result for GGGUGUUUGGAGAUUGUGUTT against Heatr3 reads active: -2.93; that for GGAUCCACAAGCGACUCAUTT against Rps20, inactive: 1.04.

For the sequence GGAGCUUACCAAGCACUACTT against Tspan18, the z-score was inactive: -0.658. Turning to GGAAGAGAAAGCAAAGUCATT against Ddx19a, the z-score was inactive: -0.43. Next, GGAACACCAUGAAGAAGACTT against Gabarap: inactive: -0.147; GGCUCGAAAGCGGUUCUUATT against Amfr: inactive: -0.828; GGGUGGGUGUUCAUUAUUATT against Timd2: inactive: -1.29. The result for GGAUCAGAAGUUGAUAGAUTT against Tmem81 reads inactive: 0.197; that for GGCAGACAAGUUGUUAAAATT against Nusap1, inactive: -0.913; that for GCACCAUUUUGAUCGUCAUTT against Olfr519, inactive: 0.341. The result for GCGUAUUCAGCUGGGAUAGTT against Marveld2 reads active: -2.42. On to GGACCACAUUCCCUUUUUUTT against Serinc5, for which the z-score is inactive: 0.762. With GGUGUGGUGGACUAAAUAUTT against Zfp932, the z-score is inactive: -0.987.

Turning to GGACUCUCAUUGAGGAACUTT against Znhit2, the z-score was inactive: -0.206. The result for GGAUGACAGAGAUCUCACATT against Gsx1 reads inactive: -0.753; that for GGAUCUGGAGAAGAUGAUGTT against Ret, inactive: -0.822. Next, GGAAAUCCAAGAACUUAAUTT against Fgfr1op2: inactive: 0.148.

These data come from PubChem BioAssay AID1508600 (Functional Genomics Laboratory (NCATS/FGL), 2020).
